Measured values as given in the supplement of paper PMC10849652.
The list shows a part of the results.

Sequences of proteins named here, by UniProt entry; tags and fusion partners are left off. A change or cut given only in a name is not applied to a line headed by its entry.
UniProt Q9H0V1: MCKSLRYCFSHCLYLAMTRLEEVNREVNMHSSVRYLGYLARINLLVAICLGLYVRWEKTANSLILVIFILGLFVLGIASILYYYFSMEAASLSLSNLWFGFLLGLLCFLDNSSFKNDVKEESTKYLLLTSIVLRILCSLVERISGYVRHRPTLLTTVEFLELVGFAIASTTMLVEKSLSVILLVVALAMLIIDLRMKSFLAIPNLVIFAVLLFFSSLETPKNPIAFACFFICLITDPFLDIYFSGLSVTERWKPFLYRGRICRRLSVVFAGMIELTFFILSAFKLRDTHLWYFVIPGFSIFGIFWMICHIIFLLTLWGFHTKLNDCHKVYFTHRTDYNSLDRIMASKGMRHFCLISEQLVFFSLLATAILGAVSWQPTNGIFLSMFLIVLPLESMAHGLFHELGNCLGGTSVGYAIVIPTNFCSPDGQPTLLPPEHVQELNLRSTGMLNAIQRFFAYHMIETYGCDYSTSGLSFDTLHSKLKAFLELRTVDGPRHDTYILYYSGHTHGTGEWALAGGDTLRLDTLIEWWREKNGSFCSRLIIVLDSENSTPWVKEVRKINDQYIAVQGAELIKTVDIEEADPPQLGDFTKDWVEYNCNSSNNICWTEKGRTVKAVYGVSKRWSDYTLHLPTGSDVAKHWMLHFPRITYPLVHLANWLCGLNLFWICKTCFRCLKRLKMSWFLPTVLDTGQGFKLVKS
UniProt Q5U3C3: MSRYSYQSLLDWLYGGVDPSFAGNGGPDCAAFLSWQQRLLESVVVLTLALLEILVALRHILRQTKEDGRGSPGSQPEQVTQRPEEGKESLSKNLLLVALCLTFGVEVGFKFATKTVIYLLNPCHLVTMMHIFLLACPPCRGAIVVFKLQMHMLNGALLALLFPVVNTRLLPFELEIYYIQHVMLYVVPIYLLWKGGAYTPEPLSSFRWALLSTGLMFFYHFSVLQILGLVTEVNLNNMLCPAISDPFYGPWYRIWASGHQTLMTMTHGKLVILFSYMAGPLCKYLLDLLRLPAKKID
UniProt Q12893: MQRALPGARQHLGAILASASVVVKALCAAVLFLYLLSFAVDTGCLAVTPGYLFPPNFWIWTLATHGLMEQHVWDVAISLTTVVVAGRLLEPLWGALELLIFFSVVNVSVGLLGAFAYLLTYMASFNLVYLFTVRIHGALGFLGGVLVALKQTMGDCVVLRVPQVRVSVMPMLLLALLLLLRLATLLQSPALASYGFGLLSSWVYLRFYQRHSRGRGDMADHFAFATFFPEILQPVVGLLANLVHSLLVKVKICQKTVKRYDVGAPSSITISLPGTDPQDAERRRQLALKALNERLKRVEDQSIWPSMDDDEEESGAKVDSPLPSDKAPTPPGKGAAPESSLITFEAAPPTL
UniProt Q7Z7H5: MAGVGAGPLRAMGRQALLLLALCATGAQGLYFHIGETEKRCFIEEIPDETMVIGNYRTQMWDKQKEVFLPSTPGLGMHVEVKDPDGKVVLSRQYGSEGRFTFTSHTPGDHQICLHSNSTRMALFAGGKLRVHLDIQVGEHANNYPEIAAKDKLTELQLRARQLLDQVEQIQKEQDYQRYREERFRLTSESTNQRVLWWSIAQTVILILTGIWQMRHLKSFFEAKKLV
UniProt Q6UW68: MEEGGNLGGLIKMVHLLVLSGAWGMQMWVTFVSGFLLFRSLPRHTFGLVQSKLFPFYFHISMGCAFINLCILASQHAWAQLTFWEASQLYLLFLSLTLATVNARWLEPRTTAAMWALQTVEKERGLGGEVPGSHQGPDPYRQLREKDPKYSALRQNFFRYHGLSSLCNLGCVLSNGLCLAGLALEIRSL
UniProt Q96SK2: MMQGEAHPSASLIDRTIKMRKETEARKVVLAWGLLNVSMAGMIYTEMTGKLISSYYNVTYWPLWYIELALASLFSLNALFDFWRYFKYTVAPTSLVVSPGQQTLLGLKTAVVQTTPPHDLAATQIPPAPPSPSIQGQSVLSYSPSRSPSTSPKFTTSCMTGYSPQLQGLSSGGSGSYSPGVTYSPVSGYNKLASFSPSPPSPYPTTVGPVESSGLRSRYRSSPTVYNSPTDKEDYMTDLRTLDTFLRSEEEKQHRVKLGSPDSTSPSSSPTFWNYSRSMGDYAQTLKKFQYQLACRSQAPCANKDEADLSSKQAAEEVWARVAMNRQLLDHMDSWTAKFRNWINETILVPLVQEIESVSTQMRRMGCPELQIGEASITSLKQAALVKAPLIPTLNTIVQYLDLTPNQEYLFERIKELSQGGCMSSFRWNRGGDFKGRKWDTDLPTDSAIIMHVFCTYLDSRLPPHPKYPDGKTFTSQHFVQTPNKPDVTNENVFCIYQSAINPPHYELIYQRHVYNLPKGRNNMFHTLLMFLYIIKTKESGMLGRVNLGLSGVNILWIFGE
UniProt Q96MH6: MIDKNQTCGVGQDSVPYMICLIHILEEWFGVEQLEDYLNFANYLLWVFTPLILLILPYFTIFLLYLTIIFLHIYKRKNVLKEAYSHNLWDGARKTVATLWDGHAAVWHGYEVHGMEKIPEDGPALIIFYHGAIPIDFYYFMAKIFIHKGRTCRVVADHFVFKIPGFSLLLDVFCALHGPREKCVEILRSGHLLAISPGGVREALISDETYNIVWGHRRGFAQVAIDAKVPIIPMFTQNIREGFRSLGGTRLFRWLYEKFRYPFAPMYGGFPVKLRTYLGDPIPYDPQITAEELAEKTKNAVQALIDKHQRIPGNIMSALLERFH
UniProt Q9BXJ8: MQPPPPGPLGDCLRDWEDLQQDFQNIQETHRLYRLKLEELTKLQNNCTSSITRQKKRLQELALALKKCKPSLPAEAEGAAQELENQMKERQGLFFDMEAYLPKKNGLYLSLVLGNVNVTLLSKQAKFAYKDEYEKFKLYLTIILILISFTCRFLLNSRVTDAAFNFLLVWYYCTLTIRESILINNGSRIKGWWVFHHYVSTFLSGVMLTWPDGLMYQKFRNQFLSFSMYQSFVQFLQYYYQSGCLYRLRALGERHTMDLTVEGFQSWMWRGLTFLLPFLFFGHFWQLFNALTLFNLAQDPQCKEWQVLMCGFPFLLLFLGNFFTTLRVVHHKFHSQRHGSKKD
UniProt Q9NWD8: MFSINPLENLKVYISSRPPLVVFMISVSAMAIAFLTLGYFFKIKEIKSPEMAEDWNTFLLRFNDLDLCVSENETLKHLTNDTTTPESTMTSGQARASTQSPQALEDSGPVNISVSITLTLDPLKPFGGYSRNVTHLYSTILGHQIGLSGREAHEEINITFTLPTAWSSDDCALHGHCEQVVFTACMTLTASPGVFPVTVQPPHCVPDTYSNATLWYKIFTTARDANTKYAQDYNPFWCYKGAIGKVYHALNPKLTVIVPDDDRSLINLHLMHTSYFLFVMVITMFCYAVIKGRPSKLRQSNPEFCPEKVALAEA
UniProt Q96B77: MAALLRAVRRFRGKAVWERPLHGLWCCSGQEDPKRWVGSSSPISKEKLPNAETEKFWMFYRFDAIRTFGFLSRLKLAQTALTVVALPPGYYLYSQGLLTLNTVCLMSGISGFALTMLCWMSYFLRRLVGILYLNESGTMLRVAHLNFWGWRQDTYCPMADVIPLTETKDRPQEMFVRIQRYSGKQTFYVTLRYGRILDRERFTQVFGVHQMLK
UniProt O00220, whole entry, looked up: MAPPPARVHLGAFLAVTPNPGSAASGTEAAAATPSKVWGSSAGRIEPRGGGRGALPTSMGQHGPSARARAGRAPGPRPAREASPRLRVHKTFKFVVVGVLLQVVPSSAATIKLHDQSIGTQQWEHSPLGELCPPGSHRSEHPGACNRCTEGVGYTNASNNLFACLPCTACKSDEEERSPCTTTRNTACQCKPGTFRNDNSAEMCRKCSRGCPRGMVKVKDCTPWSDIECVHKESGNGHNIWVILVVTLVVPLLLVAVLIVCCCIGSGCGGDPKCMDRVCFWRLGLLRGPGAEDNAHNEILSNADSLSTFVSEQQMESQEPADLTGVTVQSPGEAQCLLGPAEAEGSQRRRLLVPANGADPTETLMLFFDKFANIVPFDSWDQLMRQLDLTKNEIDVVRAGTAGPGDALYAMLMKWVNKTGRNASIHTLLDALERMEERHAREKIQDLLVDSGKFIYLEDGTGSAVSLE
UniProt O14763, whole entry, looked up: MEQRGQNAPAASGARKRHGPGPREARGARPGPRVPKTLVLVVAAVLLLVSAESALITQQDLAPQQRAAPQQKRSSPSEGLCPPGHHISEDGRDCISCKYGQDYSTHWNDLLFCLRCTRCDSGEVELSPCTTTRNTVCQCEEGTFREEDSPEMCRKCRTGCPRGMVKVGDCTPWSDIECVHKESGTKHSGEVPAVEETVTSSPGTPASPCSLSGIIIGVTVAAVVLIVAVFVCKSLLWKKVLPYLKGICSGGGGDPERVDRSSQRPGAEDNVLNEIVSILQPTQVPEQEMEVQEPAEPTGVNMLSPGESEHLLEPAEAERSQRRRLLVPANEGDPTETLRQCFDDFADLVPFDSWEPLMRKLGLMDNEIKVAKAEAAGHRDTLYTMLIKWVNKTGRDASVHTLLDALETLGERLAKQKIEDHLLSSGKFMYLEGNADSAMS
UniProt Q8IUX1: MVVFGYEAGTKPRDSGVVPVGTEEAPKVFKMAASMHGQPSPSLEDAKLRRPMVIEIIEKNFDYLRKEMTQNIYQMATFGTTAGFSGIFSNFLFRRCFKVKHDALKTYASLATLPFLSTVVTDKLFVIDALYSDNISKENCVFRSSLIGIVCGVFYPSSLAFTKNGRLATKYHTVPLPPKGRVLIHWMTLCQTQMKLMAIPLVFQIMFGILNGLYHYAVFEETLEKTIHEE
UniProt P62328: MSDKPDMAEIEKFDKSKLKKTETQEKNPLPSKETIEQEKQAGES
UniProt Q8IY95: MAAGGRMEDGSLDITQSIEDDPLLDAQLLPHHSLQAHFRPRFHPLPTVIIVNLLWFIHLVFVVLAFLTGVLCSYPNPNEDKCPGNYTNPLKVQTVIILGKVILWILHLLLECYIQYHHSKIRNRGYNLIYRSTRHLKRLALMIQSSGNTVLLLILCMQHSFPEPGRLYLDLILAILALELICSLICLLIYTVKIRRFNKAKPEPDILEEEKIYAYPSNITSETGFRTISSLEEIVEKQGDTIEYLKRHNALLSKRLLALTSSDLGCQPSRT
UniProt Q5T3F8: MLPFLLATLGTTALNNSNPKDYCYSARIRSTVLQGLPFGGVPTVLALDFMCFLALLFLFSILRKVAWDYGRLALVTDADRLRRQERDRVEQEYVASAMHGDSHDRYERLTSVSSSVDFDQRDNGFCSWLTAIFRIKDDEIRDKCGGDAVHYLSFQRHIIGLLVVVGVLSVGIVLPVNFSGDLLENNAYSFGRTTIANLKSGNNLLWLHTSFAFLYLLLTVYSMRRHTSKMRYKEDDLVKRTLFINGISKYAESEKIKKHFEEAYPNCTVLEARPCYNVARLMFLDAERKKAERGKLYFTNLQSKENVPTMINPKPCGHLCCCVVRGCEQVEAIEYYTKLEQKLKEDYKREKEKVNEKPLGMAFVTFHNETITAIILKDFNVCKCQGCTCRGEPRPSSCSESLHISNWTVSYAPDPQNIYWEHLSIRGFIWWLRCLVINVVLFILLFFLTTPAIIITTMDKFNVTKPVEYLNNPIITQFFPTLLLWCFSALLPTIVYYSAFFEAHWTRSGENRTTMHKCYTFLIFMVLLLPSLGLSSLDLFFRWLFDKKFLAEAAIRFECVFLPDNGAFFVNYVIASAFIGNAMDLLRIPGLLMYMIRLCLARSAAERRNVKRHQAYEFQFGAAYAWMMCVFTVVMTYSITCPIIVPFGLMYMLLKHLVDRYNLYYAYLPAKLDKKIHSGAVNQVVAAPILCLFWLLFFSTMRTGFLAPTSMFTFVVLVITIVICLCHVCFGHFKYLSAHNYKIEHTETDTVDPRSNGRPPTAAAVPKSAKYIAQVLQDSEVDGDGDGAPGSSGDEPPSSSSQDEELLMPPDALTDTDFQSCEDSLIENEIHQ
UniProt Q5BJH2: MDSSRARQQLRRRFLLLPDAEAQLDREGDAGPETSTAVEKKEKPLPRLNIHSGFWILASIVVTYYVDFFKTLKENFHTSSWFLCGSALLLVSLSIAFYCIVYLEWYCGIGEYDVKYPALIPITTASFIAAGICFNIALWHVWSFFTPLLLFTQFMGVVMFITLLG
UniProt A0PJW6: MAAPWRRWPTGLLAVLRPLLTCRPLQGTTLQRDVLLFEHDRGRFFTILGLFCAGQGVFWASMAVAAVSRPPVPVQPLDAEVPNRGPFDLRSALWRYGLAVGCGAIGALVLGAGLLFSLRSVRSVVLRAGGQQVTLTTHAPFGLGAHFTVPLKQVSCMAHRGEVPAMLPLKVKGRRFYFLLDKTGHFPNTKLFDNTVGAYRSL
UniProt Q7Z7N9: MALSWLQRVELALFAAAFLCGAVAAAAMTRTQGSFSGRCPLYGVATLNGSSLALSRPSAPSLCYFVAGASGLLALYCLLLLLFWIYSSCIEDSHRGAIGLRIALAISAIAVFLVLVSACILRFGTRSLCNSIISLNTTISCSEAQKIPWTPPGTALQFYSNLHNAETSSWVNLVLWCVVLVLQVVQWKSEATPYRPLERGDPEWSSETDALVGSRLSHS
UniProt Q9NQ34: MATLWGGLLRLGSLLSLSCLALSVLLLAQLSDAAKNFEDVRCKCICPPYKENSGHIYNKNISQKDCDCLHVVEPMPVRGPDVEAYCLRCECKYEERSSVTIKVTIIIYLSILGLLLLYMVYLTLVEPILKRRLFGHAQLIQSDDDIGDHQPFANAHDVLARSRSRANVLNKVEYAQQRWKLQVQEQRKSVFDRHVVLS

Key:
Experiment in all cases: log2 fold change, soluble protein after heating vs DMSO (PISA); higher = thermal stabilisation; K562 cells, 10 uM, 30 min; active = over 0.2 and 3.5 SD of the protein, either way, in both replicates (recomputed)
[1] = compound: CC[C@@H]1C(=O)N(C)c2cnc(Nc3ccc(C(=O)NC4CCN(C)CC4)cc3OC)nc2N1C1CCCC1
Summary of the method: (§1)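 Aliquots of K562 cells (2×10^6 cells/mL) treated with 10 μM compound for 30 min were heated for 3 min over 48°C-58°C. After pooling and extraction in PBS with 0.5% NP-40 at 4°C, soluble protein from a 21,000xg, 90 min spin was quantified by TMTpro 16plex LC-MS/MS with channel sums equalised. Thermal stability is expressed against control samples, from duplicates, as a log2 fold change.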

[2] = compound: CC[C@@H]1C(=O)N(C)c2cnc(Nc3ccc(C(=O)N[C@H]4CC[C@H](N5CCN(CC6CC6)CC5)CC4)cc3OC)nc2N1C(C)C [volasertib]
Summary of the method: as §1

[3] = compound: CC[C@H](C)N1C=C(C2=C(C=C(C=C21)C3=CN=C(C=C3)N4CCNCC4)C(=O)NCC5=C(C=C(NC5=O)C)C)C
Summary of the method: as §1

[4] = compound: CC[C@H](C)[C@@H](C(=O)N[C@@H]([C@@H](C)O)C(=O)N[C@@H](CC(C)C)C(=O)[C@]1(CO1)C)NC(=O)[C@H]([C@@H](C)CC)N(C)C(=O)C [epoxomicin]
Summary of the method: as §1

[5] = compound: CCn1c(C(=O)N(C2CC2)C2CC2)cc2c3c(ncn3C)c(Nc3cc(C)n(C)n3)nc21
Summary of the method: as §1

[6] = compound: CCn1cc(-c2ccnc3[nH]c(-c4cccc(CN(C)C)c4)cc23)c(-c2ccc(NC(=O)N(C)C)cc2)n1
Summary of the method: as §1

[7] = compound: CN(C)CC(=O)Nc1ccc2[nH]c(=O)c3ccccc3c2c1
Summary of the method: as §1

[8] = compound: CN(CCOC1=CC=C(C=C1)C[C@H]2C(=O)NC(=O)S2)C3=CC=CC=N3 (racemic) [rosiglitazone]
Summary of the method: as §1

[9] = compound: CN1C2=C(C3=C1C(=O)N(N=C3)CC4=CC(=CC=C4)N)SC(=C2)S(=O)C
Summary of the method: as §1

[10] = compound: CN1CCC(CNc2ccc3ncc(-c4cccc(OC(F)(F)F)c4)n3n2)CC1
Summary of the method: as §1

Measured: log2 fold change

TM2D3 (UniProt Q9BRN9)
inactive: [1] -0.012 | [2] 0 | [3] -0.141 | [4] -0.1 | [5] 0.013 | [6] -0.018 | [7] -0.048 | [8] 0.009 | [9] 0.026 | [10] 0.087

TMEM168 (UniProt Q9H0V1)
inactive: [1] -0.067 | [2] -0.074 | [3] -0.066 | [4] 0.08 | [5] 0.048 | [6] -0.016 | [7] 0.006 | [8] 0.037 | [9] -0.007 | [10] -0.013

TMEM164 (UniProt Q5U3C3)
inactive: [1] -0.01 | [2] -0.145 | [3] -0.01 | [4] 0.082 | [6] -0.053 | [7] 0.07 | [9] -0.001 | [10] -0.021

TMEM115 (UniProt Q12893)
inactive: [1] -0.021 | [2] -0.009 | [3] -0.076 | [4] -0.001 | [5] 0.002 | [6] 0.006 | [7] -0.023 | [8] 0.001 | [9] 0 | [10] 0.058

TMED4 (UniProt Q7Z7H5)
inactive: [1] -0.094 | [2] -0.025 | [3] -0.033 | [4] -0.001 | [5] -0.016 | [6] -0.028 | [7] 0.01 | [8] 0.022 | [9] -0.081 | [10] -0.017

TMEM205 (UniProt Q6UW68)
inactive: [1] 0.033 | [2] 0.075 | [3] 0.038 | [4] 0.035 | [5] 0.07 | [6] 0.051 | [7] 0.068 | [8] 0.003 | [9] 0.018 | [10] 0.278

TMEM209 (UniProt Q96SK2)
inactive: [1] -0.114 | [2] -0.138 | [3] 0.094 | [4] 0.07 | [5] -0.011 | [6] 0.004 | [7] 0.008 | [8] 0.05 | [9] -0.033 | [10] -0.106

TMEM68 (UniProt Q96MH6)
inactive: [1] -0.005 | [2] -0.09 | [3] 0.012 | [4] -0.063 | [5] 0.017 | [6] -0.079 | [7] 0.058 | [8] 0.021 | [9] -0.012 | [10] -0.02

TMEM120A (UniProt Q9BXJ8)
inactive: [1] 0.127 | [2] -0.053 | [3] 0.119 | [4] 0.198 | [6] -0.128 | [7] 0.015 | [9] -0.061 | [10] 0.07

TMEM248 (UniProt Q9NWD8)
inactive: [1] 0.204 | [2] 0.078 | [3] -0.083 | [4] 0.099 | [5] 0.017 | [6] 0.031 | [7] 0 | [8] 0.001 | [9] -0.236 | [10] 0.078

TMA16 (UniProt Q96EY4)
inactive: [1] 0.159 | [2] 0.271 | [3] 0.03 | [4] -0.225 | [5] 0.017 | [6] 0.2 | [7] -0.158 | [8] -0.03 | [9] 0.215 | [10] 0.252

TMTC3 (UniProt Q6ZXV5)
inactive: [1] -0.074 | [2] -0.118 | [3] 0.023 | [4] 0.001 | [6] 0.038 | [7] -0.045 | [9] -0.014 | [10] -0.034

TMEM186 (UniProt Q96B77)
inactive: [1] 0.05 | [2] 0.146 | [3] 0.055 | [4] -0.017 | [5] 0 | [7] 0.046 | [8] 0.045 | [9] 0.01

TNFRSF10A (UniProt O00220)
inactive: [1] 0.046 | [2] 0.001 | [3] -0.02 | [4] -0.047 | [6] -0.104 | [7] -0.123 | [9] -0.02 | [10] -0.007

7 neighbouring entries already listed:
TMEM68 (UniProt Q96MH6)
inactive: [1] -0.005 | [2] -0.09 | [3] 0.012 | [4] -0.063 | [5] 0.017 | [6] -0.079 | [7] 0.058 | [8] 0.021 | [9] -0.012 | [10] -0.02

TMEM120A (UniProt Q9BXJ8)
inactive: [1] 0.127 | [2] -0.053 | [3] 0.119 | [4] 0.198 | [6] -0.128 | [7] 0.015 | [9] -0.061 | [10] 0.07

TMEM248 (UniProt Q9NWD8)
inactive: [1] 0.204 | [2] 0.078 | [3] -0.083 | [4] 0.099 | [5] 0.017 | [6] 0.031 | [7] 0 | [8] 0.001 | [9] -0.236 | [10] 0.078

TMA16 (UniProt Q96EY4)
inactive: [1] 0.159 | [2] 0.271 | [3] 0.03 | [4] -0.225 | [5] 0.017 | [6] 0.2 | [7] -0.158 | [8] -0.03 | [9] 0.215 | [10] 0.252

TMTC3 (UniProt Q6ZXV5)
inactive: [1] -0.074 | [2] -0.118 | [3] 0.023 | [4] 0.001 | [6] 0.038 | [7] -0.045 | [9] -0.014 | [10] -0.034

TMEM186 (UniProt Q96B77)
inactive: [1] 0.05 | [2] 0.146 | [3] 0.055 | [4] -0.017 | [5] 0 | [7] 0.046 | [8] 0.045 | [9] 0.01

TNFRSF10A (UniProt O00220)
inactive: [1] 0.046 | [2] 0.001 | [3] -0.02 | [4] -0.047 | [6] -0.104 | [7] -0.123 | [9] -0.02 | [10] -0.007

(next part)

TLE4 isoform 3 (UniProt Q04727)
inactive: [1] 0.063 | [2] -0.001 | [3] -0.027 | [4] 0.037 | [5] 0 | [6] -0.031 | [7] -0.028 | [8] 0.01 | [9] -0.026 | [10] -0.005

TNFRSF10B (UniProt O14763)
inactive: [1] 0.014 | [2] -0.017 | [3] -0.212 | [4] -0.008 | [5] -0.013 | [6] -0.018 | [7] -0.133 | [8] -0.031 | [9] -0.112 | [10] 0.064

TMEM126B (UniProt Q8IUX1)
inactive: [1] -0.038 | [3] 0.018 | [4] -0.025 | [5] 0 | [6] -0.006 | [7] -0.008 | [8] -0.03 | [9] 0.069 | [10] -0.12

TMEM69 (UniProt Q5SWH9)
inactive: [1] 0.012 | [2] -0.085 | [3] 0.015 | [5] 0.052 | [6] -0.024 | [8] 0.008 | [10] -0.017

TMSB4X (UniProt P62328)
inactive: [1] -0.335 | [2] 0.138 | [3] -0.47 | [4] -0.292 | [7] -0.18 | [8] -0.272 | [9] 0.079

TMEM189-UBE2V1 (UniProt I3L0A0)
inactive: [1] 0.054 | [2] 0.056 | [3] -0.137 | [4] -0.023 | [6] 0.048 | [7] 0 | [9] -0.035 | [10] -0.009

TMEM192 (UniProt Q8IY95)
active: [10] -0.408
inactive: [1] -0.139 | [2] -0.061 | [3] -0.025 | [4] -0.04 | [6] 0.046 | [7] -0.024 | [9] 0.025

TMEM208 (UniProt Q9BTX3)
inactive: [1] -0.071 | [2] -0.208 | [3] -0.048 | [4] -0.03 | [6] -0.022 | [7] 0.274 | [9] -0.02 | [10] 0.036

TMEM63B (UniProt Q5T3F8)
inactive: [1] -0.001 | [2] 0.071 | [3] -0.019 | [4] 0.039 | [6] 0.011 | [7] -0.052 | [9] 0.042 | [10] -0.073

TMEM128 (UniProt Q5BJH2)
inactive: [1] -0.076 | [2] -0.005 | [3] 0.015 | [4] 0.003 | [7] 0.149 | [9] -0.033

TMEM8A (UniProt Q9HCN3)
inactive: [1] -0.11 | [2] 0.008 | [3] -0.108 | [6] -0.037 | [7] -0.031 | [9] 0.082 | [10] -0.104

TMEM101 (UniProt Q96IK0)
inactive: [1] 0.033 | [2] 0.041 | [3] 0.106 | [5] 0.03 | [6] -0.036 | [7] 0.004 | [8] 0.013 | [9] -0.058 | [10] -0.156

TMEM223 (UniProt A0PJW6)
active: [10] -0.271
inactive: [1] -0.004 | [2] 0.043 | [3] 0.035 | [4] -0.01 | [6] 0.022 | [7] -0.015 | [9] -0.022

TLK1 (UniProt Q9UKI8)
inactive: [1] 0.017 | [2] -0.088 | [3] 0.02 | [4] -0.018 | [6] -0.054 | [7] 0.033 | [9] -0.086 | [10] -0.037

TMEM179B (UniProt Q7Z7N9)
inactive: [1] 0.05 | [2] 0.052 | [3] 0.029 | [6] 0.039 | [10] -0.128
active: [4] -0.44

TMEM268 isoform 3 (UniProt Q5VZI3)
active: [4] 0.536
inactive: [1] -0.088 | [2] -0.005 | [3] 0.112 | [6] 0.013 | [9] 0.025 | [10] -0.123

TMEM9B (UniProt Q9NQ34)
inactive: [1] 0.035 | [2] -0.192 | [3] -0.011 | [4] 0.109 | [6] 0.049 | [7] -0.023 | [10] -0.054
